Results taken from PMC7862700.
Only a part is listed here, and it is no random draw. At the low end of the ranking the order means little.

Molecular target: T1, ELF3 (UniProt P78545)
T1 sequence: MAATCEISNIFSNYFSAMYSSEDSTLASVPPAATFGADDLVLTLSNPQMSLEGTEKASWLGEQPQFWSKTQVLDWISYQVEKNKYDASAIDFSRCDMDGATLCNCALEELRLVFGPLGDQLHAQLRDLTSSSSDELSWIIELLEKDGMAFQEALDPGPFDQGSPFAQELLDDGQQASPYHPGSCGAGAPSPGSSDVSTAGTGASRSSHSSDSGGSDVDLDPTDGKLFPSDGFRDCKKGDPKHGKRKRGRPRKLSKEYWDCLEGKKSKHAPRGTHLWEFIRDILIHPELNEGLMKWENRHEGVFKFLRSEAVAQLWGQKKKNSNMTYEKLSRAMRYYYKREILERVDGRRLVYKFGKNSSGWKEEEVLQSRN
Test: DAPPL (digital affinity profiling via proximity ligation, sequencing)
Settings: 10 mM Tris-HCl pH 7.5, 50 mM NaCl, 1 mM DTT, 4% glycerol, room temperature, 30 min; GST-TFs on glutathione beads, 16-mer random dsDNA library, 0.1% …; high values mean tight binding; double strand, one strand shown; scale: fold enrichment (6-mer frequency, TF over GST control)

Sequence	binding signal
TCTCGT	1.65
CATATG	0.996
ACCTTC	1.95
TTGGAA	1.06
TACAAT	1.36
ATGACC	1.63
CTTTCG	1.4
CAACGC	0.985
TTCGCT	1.26
TATTGC	1.2
GAAGAA	1.26
TTAGGT	1.15
ACACAT	1.28
ACGAAA	1.19
TTCCTA	1.84
TTCGCG	0.97
TGGGGT	0.976
CCCTTA	1.29
ATTGGC	1.24
GTCCCG	1.26

As entered above.
Entry of TTCGCG under binding signal: 0.97
Entry of TATTGC under binding signal: 1.2

(cont.)

Sequence	binding signal
CTGTTC	1.63
TCCGAT	1.23
TTCCGG	5.14
GTATGG	1.04
ACTCCA	0.993
GGCATT	0.94
TCCATG	1.25
ATTCCA	1.04
GTAATT	1.19
TCCACC	0.925
ATTTGC	1.33
TCGAGC	1
TCATGG	1.16
TTGAGG	1.05
CGTATA	1.24
CCTTTA	1.51
GATAGC	1.08
CCCTGT	1.08
TCTATA	1.08
